Data as given in PubChem BioAssay AID686943 (Drosophila RNAi Screening Center, 2013)
In all, the deposit lists about 23,000 reagents; this is a random part of those with a known target gene and a result. 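Extra replicates exist only for a retested subset of genes; insulin dose and duration not given; both raised and lowered dpERK matter.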 Further read-outs or replicates are left out here. Not stated in the record: the amount of reagent, the time to read-out.

Test: 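Fly genes whose loss alters ERK activation after insulin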 (primary screen)
System: Drosophila S2R+ haemocyte-like cells expressing YFP-tagged ERK (Rolled)
Reagents: long dsRNA against Drosophila genes
Conditions: insulin stimulation versus unstimulated cells; dose and duration not given
Read-out: 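Per-plate z-scores of phospho-ERK immunostaining normalised to YFP-tagged ERK, measured with and without insulin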
Direction: replicate 1, z-score of dpERK with insulin and replicate 2, z-score of dpERK with insulin: higher = more active ERK per ERK-YFP after insulin

For gom (gomdanji) [DRSC04690], the entry reads replicate 1, z-score of dpERK with insulin 0.6; replicate 2, z-score of dpERK with insulin 0.04.
With knock-down of Hey (Hairy/E(spl)-related with YRPW motif) [DRSC07440] the results were replicate 1, z-score of dpERK with insulin -4.23; replicate 2, z-score of dpERK with insulin -3.97.
CG31365 [DRSC15610] showed replicate 1, z-score of dpERK with insulin 0.31; replicate 2, z-score of dpERK with insulin 0.55.
Silencing of ppk5 (pickpocket 5) [DRSC11492] came out at: replicate 1, z-score of dpERK with insulin 0.95; replicate 2, z-score of dpERK with insulin 2.14.
Jon99Fii (Jonah 99Fii) [DRSC15430] showed replicate 1, z-score of dpERK with insulin 0.13; replicate 2, z-score of dpERK with insulin -0.04.
For CG14695 [DRSC14918], the entry reads replicate 1, z-score of dpERK with insulin -0.94; replicate 2, z-score of dpERK with insulin -0.52.
PIG-Wa (Phosphatidylinositol glycan anchor biosynthesis class W a) [DRSC00728] scored replicate 1, z-score of dpERK with insulin 0.18; replicate 2, z-score of dpERK with insulin -0.55.
CG9993 [DRSC04599] gave replicate 1, z-score of dpERK with insulin 0.59; replicate 2, z-score of dpERK with insulin 0.05.
Depletion of CG9512 [DRSC20189] came out at: replicate 1, z-score of dpERK with insulin -0.93; replicate 2, z-score of dpERK with insulin 0.68.
CG30096 [DRSC21744] showed replicate 1, z-score of dpERK with insulin 0; replicate 2, z-score of dpERK with insulin -0.24.
Knock-down of CG7352 [DRSC16233] came out at: replicate 1, z-score of dpERK with insulin 0.15; replicate 2, z-score of dpERK with insulin 0.61.
For kdn (knockdown) [DRSC18328], the entry reads replicate 1, z-score of dpERK with insulin 0.37; replicate 2, z-score of dpERK with insulin 0.15.

Copied from the entries so far (2 entries):
CG9512 [DRSC20189] → replicate 1, z-score of dpERK with insulin: -0.93; replicate 2, z-score of dpERK with insulin: 0.68
CG30096 [DRSC21744] → replicate 1, z-score of dpERK with insulin: 0; replicate 2, z-score of dpERK with insulin: -0.24
